The text below walks through data of paper PMC13434269.

Amino acid sequences for entries named in this document (tags omitted).
UniProt Q8VBV3: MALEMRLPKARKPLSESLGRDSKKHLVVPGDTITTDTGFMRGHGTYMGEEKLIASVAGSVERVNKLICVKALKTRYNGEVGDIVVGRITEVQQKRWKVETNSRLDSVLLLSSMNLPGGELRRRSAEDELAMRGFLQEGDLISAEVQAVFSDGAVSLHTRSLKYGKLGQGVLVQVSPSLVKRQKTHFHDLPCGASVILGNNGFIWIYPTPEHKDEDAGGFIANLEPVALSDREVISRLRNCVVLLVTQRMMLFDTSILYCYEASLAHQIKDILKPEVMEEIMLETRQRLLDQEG
UniProt Q9D0M0: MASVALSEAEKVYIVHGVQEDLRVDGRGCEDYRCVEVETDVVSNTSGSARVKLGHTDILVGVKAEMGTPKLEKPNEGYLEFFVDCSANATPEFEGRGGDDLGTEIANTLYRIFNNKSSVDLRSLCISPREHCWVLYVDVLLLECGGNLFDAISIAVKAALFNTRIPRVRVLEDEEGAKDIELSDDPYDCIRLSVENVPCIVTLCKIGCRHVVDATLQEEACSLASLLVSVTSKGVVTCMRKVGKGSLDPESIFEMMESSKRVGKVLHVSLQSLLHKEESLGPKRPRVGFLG
UniProt Q7TQK4: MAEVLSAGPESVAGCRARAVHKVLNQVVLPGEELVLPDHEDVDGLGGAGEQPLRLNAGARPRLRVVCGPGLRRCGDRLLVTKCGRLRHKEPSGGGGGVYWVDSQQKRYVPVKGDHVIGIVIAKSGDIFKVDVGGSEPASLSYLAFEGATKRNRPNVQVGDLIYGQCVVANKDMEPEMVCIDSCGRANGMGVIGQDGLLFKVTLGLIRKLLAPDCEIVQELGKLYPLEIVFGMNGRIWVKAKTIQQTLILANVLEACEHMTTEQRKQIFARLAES
UniProt Q921I9: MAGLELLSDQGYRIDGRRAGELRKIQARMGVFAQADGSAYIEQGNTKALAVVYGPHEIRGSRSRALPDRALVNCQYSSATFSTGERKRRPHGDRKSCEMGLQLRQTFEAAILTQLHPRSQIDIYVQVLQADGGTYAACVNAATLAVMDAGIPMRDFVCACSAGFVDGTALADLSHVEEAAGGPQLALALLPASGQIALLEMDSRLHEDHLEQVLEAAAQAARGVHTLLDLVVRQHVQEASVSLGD
UniProt Q9CRA8: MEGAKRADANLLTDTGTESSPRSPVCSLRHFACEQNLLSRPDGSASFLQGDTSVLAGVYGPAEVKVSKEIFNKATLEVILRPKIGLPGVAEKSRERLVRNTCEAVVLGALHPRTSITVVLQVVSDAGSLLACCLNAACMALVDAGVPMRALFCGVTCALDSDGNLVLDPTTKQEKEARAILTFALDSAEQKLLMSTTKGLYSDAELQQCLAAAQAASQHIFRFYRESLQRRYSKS
UniProt Q8BTW3: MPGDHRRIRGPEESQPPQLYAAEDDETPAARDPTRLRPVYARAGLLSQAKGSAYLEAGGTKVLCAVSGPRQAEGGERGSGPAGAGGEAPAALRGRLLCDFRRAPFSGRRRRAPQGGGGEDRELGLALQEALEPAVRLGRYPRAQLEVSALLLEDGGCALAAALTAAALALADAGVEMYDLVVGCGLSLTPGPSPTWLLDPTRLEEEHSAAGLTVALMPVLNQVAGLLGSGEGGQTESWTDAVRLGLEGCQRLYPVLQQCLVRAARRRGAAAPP
UniProt Q9D753: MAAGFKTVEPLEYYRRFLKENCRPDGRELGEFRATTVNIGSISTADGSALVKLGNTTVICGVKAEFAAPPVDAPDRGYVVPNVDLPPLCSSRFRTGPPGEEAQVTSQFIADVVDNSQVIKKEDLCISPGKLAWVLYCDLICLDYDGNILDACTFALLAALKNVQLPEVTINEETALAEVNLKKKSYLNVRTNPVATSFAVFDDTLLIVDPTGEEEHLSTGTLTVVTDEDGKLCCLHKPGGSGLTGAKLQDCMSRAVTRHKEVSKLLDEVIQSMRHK
UniProt Q9JHI7: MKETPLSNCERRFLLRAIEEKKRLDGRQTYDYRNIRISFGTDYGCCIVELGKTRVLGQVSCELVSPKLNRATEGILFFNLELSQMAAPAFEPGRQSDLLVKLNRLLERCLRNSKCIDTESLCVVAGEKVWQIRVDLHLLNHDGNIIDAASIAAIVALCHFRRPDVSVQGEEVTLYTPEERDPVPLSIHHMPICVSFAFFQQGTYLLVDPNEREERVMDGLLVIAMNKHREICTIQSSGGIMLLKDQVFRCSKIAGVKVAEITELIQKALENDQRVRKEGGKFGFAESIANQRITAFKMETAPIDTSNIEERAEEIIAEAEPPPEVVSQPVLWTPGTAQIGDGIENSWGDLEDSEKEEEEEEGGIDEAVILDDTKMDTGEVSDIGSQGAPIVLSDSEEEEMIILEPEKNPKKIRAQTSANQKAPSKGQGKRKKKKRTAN

These are yes or no findings as the source states them, for the method shown. In cells and extracts the contact can be indirect. Here binding means that the protein was enriched with, or labelled near, the bait; the list need not be complete.

Assay [1] concerns the target Exosc2-mCherry-V5 (mouse) (UniProt Q8VBV3). In words: affinity purification with mass spectrometry; anti-V5 immunoprecipitation from lysate of mESCs expressing Exosc2-mCherry-V5 against the V5-mCherry control, on-bead digestion, n = 3.
In assay [2] the target is Exosc7-3xFLAG (mouse) (UniProt Q9D0M0). Put plainly: affinity purification with mass spectrometry; FLAG magnetic beads on lysate of mESCs after 0, 60, 75, 90, 120 min and 24 h of doxycycline induction of Exosc7-3xFLAG, against parental cells.
Assay [3] addresses Exosc2-HA-mNeonGreen (mouse) (UniProt Q8VBV3). Put plainly: affinity purification with mass spectrometry; whole-cell extract of Exosc2-HA-mNeonGreen mESCs separated on Superdex 200 Increase; fractions A7-A10, B3-B6 and B8-B11 pooled, Igepal CA-630 adjusted to 1%, anti-HA magnetic beads, against the untagged parental control, n = 3.

Regarding Exosc1 (from UniProt Q9DAA6-1 1-195), the binding result in assay [1], in assay [2] and in assay [3] was “binds” in each case. As for Exosc2 (from UniProt Q8VBV3 1-293), the binding result in assay [2] is “binds”. On to Exosc3 (from UniProt Q7TQK4 1-274), for which the binding result in assay [1], in assay [2] and in assay [3] was “binds” throughout.

Turning to Exosc4 (from UniProt Q921I9 1-245), the binding entry in assay [2] was “binds”. Still for that read-out and setting: for Exosc5 (from UniProt Q9CRA8 1-235) the value was “binds”. As to Exosc6 (from UniProt Q8BTW3 1-273), the binding result in assay [1], in assay [2] and in assay [3] was “binds” each time. Consider Exosc7 (from UniProt Q9D0M0 1-291), for which the binding entry in assay [1] and in assay [3] was “binds” in each case. Turning to Exosc8 (from UniProt Q9D753 1-276), the binding entry in assay [1], in assay [2] and in assay [3] was “binds” each time. For the molecule Exosc9 (from UniProt Q9JHI7 1-438), the binding entry in assay [1], in assay [2] and in assay [3] was “binds” throughout.

B1: C1d (protein, UniProt O35473 1-141)
chain: MAGEEMNEDYPVEIHESLTALESSLGAVDDMLKTMMAVSRNELLQKLDPLEQAKVDLVSAYTLNSMFWVYLATQGVNPKEHPVKQELERIRVYMNRVKEITDKKKAAKLDRGAASRFVKNALWEPKAKSTPKVANKGKSKH
Regarding B1, in assay [3], the binding entry is on record as “binds”.

B2: Mphosph6 (protein, UniProt Q9D1Q1 1-161)
chain: MASERKTKLSKNLLRMKFMQRGLDSETKKQLEEEERKMISDEHWYLDLPELKEKESFIVEEQSFSLCEDLLYGRMSFRGFNPEVEKLMLQMNSKNRAEAAEEDETVEVDVSDEEMARRYETLVGTIGKKFVKKRDRANYEEDENGTIKAIKPKKMFLKPQD
As for B2, in assay [3], the binding entry was “binds”.

B3: Exosc10 (enzyme, UniProt P56960 1-887)
chain: MAPPSPREHQSAPATSATKPDAEMVLPGFPDADSFVKFALGSVVAVTKASGGLPQFGDEYDFYRSFPAFQAFCETQGDRLLQCMSRVMQYHGCRSNIKDRSKVTELEDKFDLLVDTNDVILERVGMLLDEASGVNKHQQPVLPAGLQVPKTIVSSWNRKAGEYGKKAKSETFRLLHAKNIVRPQLRFREKIDNSNTPFLPKIFVKPNARKPLPLALSKERRERPQDRPEDLDVPPALADFIHQQRTQQVEQDMFAHPYQYELDHFTPPQSVLQRPKPQLYRAVGETPCHLVSSLDELVELNEKLLGCQEFAVDLEHHSYRSFLGLTCLMQISTRTEDFIVDTLELRSDMYILNESLTDPAIVKVFHGADSDIEWLQKDFGLYVVNMFDTHQAARLLNLARHSLDHLLRLYCGVESNKQYQLADWRIRPLPEEMLSYARDDTHYLLYIYDRMRLELWERGNHQPVQLQVVWQRSRDICLKKFVKPIFTDESYLELYRKQKKHLNSQQLTAFQLLFAWRDKTARREDESYGYVLPNHMMLKIAEELPKEPQGIIACCNPVPPLVRQQINEMHLLIQQAREMPLLKSENAAGVRKSGPLPSAERLENDLFGPHDCSHAPPDNYQNTSTDGTLPLQKQPSLFTEGKEETSVDAGCLLATAVITLFSEPNTEEGGKTPLTVAQKKAQNIMQSFENPFRMFLPSLEHKAHISQAAKFDPSSKIYEISNRWKLASQVQVQKEPKEATKKKVAEQTAAREEAKEEAAAGVLEQAIPVRQQAALENATKKRERATSDLRTIEQKQEKKRLKSSKKAKDPDPPGKDFSPYDYSQSDFRAFAGDSKSKPSSQFDPNKLAPSGKKGVGAKKCKQSVGNKSMSFAVGKSDRGFRHNWPKR
B3: in assay [1], the binding entry is “binds”.

B4: Dis3 (enzyme, UniProt Q9CSH3 1-958)
chain: MLRSKTFLKKTRAGGVVKIVREHYLRDDIGCGAPACSACGGAHAGPALELQPRDQASSLCPWPHYLLPDTNVLLHQIDVLEHPAIRNVIVLQTVMQEVRNRSAPIYKRIRDVTNNQEKHFYTFTNEHHKETYIEQEQGENANDRNDRAIRVAAKWYNEHLKRVAADSQLQVILITNDRKNKEKAVQEGIPAFTCEEYVKSLTANPELIDRLAYLSDEMNEIESGKIIFSEHLPLSKLQQGIKSGSYLQGTFRASRENYLEATVWIHGDKEEEKEILIQGIKHLNRAVHEDIVAVELLPRSQWVAPSSVVLDDEGQNEDDVEKDEERELLLKTAVSEKMLRPTGRVVGIIKRNWRPYCGMLSKSDIKESRRHLFTPADKRIPRIRIETRQASALEGRRIIVAIDGWPRNSRYPNGHFVKNLGDVGEKETETEVLLLEHDVPHQPFSQAVLSFLPRMPWSITEEDMKNREDLRHLCVCSVDPPGCTDIDDALHCRELSNGNLEVGVHIADVSHFIRPGNALDQESARRGTTVYLCEKRIDMVPELLSSNLCSLRSNVDRLAFSCIWEMNHNAEILKTRFTKSVINSKASLTYAEAQMRIDSAAMNDDITTSLRGLNQLAKILKKGRIEKGALTLSSPEIRFHMDSETHDPIDLQTKELRETNSMVEEFMLLANISVAKKIHEEFSEHALLRKHPAPPPSNYDILVKAAKSKNLQIKTDTAKSLADSLDRAESPDFPYLNTLLRILATRCMMQAVYFCSGMDNDFHHYGLASPIYTHFTSPIRRYADIIVHRLLAVAIGADCTYPELTDKHKLSDICKNLNFRHKMAQYAQRASVAFHTQLFFKSKGIVSEEAYILFVRKNAIVVLIPKYGLEGTVFFEEKDKPKPRLAYDDEIPSLRIEGTVFHVFDKVKVKITLDSSNLQHQKIRMALVEPQIPGINIPPNVADKALTAPGGKKRKLEK
As for B4, the binding result in assay [1] was “binds weakly”.
